1 substance from patent publication US20260000742A1 can be followed below.

Chains of the proteins cited; added tags and fusions are not shown. Residues count along the entry.
UniProt P04202, residues 279-390: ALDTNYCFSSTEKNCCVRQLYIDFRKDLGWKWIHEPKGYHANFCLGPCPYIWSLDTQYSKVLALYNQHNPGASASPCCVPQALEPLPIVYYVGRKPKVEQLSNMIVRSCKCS
UniProt Q9D236, residues 24-459: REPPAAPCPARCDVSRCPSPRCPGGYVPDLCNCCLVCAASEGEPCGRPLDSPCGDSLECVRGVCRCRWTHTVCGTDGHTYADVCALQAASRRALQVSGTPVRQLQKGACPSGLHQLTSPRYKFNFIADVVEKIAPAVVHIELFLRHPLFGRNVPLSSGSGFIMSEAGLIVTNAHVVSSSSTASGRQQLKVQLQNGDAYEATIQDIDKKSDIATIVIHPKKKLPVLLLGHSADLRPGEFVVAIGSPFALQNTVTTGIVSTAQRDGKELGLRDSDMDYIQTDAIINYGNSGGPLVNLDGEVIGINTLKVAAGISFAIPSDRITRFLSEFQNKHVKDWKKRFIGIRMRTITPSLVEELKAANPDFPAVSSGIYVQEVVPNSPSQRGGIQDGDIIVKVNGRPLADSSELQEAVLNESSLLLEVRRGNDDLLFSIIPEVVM

Results are given in words; binding and its absence hold for the method and conditions named. Some binding calls cover weakened binding; strength is not graded here.

For the assay, the target named is mature TGF-β1 (UniProt P04202). Description: immunoprecipitation of Htra3-flag followed by western blot.

In the case of “Htra3 tagged with FLAG at the C-terminus (Htra3-flag protein) (from UniProt Q9D236 24-459) (enzyme)”, the binding result is on record as “binds”.
